# According to PMC10669178:
# Where a chain is given by its changes, count along the chain named. Names and notes keep the numbering of the source. No constants are given. Whether binding was seen depends on the method and setting. In cells and extracts the contact can be indirect. Some results given as binding are weak or reduced against the parent protein; the word gives no strength. Sequences can lack the tags named with a protein.
# T1: His-tagged bZP3 (32–178) N146D (bovine) (UniProt P48830)
# T1 sequence: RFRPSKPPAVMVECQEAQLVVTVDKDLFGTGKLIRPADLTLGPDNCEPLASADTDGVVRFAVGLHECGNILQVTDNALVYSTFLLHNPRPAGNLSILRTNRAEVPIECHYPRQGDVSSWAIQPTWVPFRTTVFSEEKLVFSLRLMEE
# T2: His-tagged bZP3 (32–178) (bovine) (UniProt P48830)
# T2 sequence: T1 sequence with D115N
# B1: FLAG-tagged bZP4 (136–464) (domain or fragment, UniProt Q9BH11 136-464)
# chain: DVPNAGLCDSVPVWDRLPCAPSPITQGDCKQLGCCYNSEEVISCYYGNTVTSHCTQDGHFSIAVSRNVTSPPLLLNSVHLAFRNDSECKPVMATHTFVLFRFPFTTCGTTKQITGKQAVYENELVAARDVRTWSRGSITRDSTFRLQVSCSYSASSSALPVNVQVLTLPPPLPETQPGNLTLELKIAKDKRYRSYYTASDYPVVKLLRDPIYVEVSIHQRTDPSLELRLDQCWATPGADALLQPQWPLLVNGCPYTGDNYQTKLIPVWEASDLPFPSHYQRFSISTFSFVDSVAKRALKGPVYLHCSASVCQPAGTPSCVTLCPARRRR
# B2: FLAG-tagged bZP4 (136–464) N314D (domain or fragment, UniProt Q9BH11 136-464)
# chain: B1 chain with N179D
# Columns and labels:
# [1] = biological target: T1, His-tagged bZP3 (32–178) N146D (bovine); assay: pull-down; His-tagged bZP3 fragment and FLAG-tagged bZP4 fragment co-expressed in Sf9 cells (mixture of recombinant viruses, 48 h, 27 °C); complex recovered from the culture supernatant on TALON metal affinity resin by the His-tag of the bZP3 fragment; SDS-PAGE, silver-stained
# [2] = biological target: T2, His-tagged bZP3 (32–178) (bovine); assay: as above
Binder,binding [1],binding [2]
B1,binds,binds
B2,binds,binds
